# Hit rate of the full screen: of about 320,000 compounds, about 2,100 (0.66%) were called active. Inconclusive results, whose numbers are uncertain, are shown with a selection of clear calls. The call rests on the fitted dose curve; in most records, active means well fitted inhibition curve with a large enough effect in the signal ratio, with a control signal flat (not every such curve was filed as active); inconclusive means small, poorly fitted or top-dose-only effect, or effect the other way, or a change in a side signal; inactive means flat fitted curve, though single readings scatter; the % refers to the signal ratio. Potencies of inconclusive entries are doubtful fits and often do not repeat.
# Assay: qHTS Assay for Lipid Storage Modulators in Drosophila S3 Cells
# Conditions: BODIPY lipid droplet fluorescence, 18-24 h, cells fed with added oleic acid; lipid storage change, negative = inhibition: at 46.1 µM (top of the series) unless noted
# In short: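 Laser-scanning cytometry quantifies lipid droplet accumulation (500–530 nm total intensity; droplet/cell object ratio) in oleic acid-fed (400 uM added) Drosophila S3 cells treated with a concentration series. 20 uM Triacsin C defined 100% inhibition.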
# On the % scale 0 is the no-effect control and ±100 the full control effect; potency means the concentration at half of the fitted maximal effect.
SMILES,"lipid storage change, negative = inhibition",Potency
Cc1ccc2nc(-c3cccc(NC(=O)c4ccc5c(c4)OCCO5)c3)oc2c1,inconclusive: 22.8%,–
CCn1c(CNC(=O)C23CC4CC(CC(C4)C2)C3)nnc1SC,inconclusive: -14.8%,–
CCOC(=O)c1c(NC(=O)c2ccco2)sc2c1CCCC2,inconclusive: 19.8%,–
O=C(CSc1ccc2ccccc2n1)N/N=C/c1ccc(O)cc1,–,"inconclusive: 29.1 µM [falling, single point]"
O=C(CCCOc1ccccc1)Nc1cc(S(=O)(=O)N2CCOCC2)ccc1N1CCOCC1,–,"inconclusive: 0.291 µM [falling, full curve, poor fit]"
COc1ccc(CNC(=O)c2ccc(N(C)S(=O)(=O)c3ccc(C)cc3)cc2)cc1,inconclusive: -68.4%,–
Nc1nc(CSc2ncn(-c3ccccc3)n2)cs1,–,"inconclusive: 1.64 µM [activator, full curve]"
CC(C)CCNc1nnnc2c1sc1nc(N3CCOCC3)c3c(c12)CC(C)(C)SC3,inconclusive: -50.9%,–
FC(F)Sc1ccc(NC(=S)N2CCN(c3ccccn3)CC2)cc1,–,"inconclusive: 1.84 µM [activator, full curve, poor fit]"
CN1CCN(NC(=O)c2ccc(Cl)s2)CC1,–,"inconclusive: 0.651 µM [activator, single point]"
O=C(Nc1cc(C(F)(F)F)ccc1-n1cncn1)c1ccc(-c2ccccc2)cc1,inconclusive: 45%,–
COc1ccc(CN2C[C@H](Cc3ccccc3)[C@@H](CC(=O)Nc3ccccc3)C2=O)cc1,–,"inconclusive: 20.6 µM [falling, partial curve, poor fit]"
COc1cc(/C=C/C(=O)OCC(=O)NCCc2ccc(S(N)(=O)=O)cc2)ccc1OCC#N,inconclusive,–
COC(=O)Cn1c(=O)c2c(nc3n2CCCN3CCc2ccc(OC)c(OC)c2)n(C)c1=O,inconclusive: 10.5%,–
O=C(NC(=S)NCCC1=CCCCC1)c1ccccc1Br,inconclusive: 17.9%,–
O=C(Cc1ccccc1)NCC(=O)OCC(=O)c1ccc(Cl)c([N+](=O)[O-])c1,inconclusive: -34.5%,–
Cc1ccc(NCc2ccccc2F)cc1,inconclusive: 4.99%,–
Cc1ccc(S(=O)(=O)N2CCCC2C(=O)OCc2ccco2)cc1 (stereo unspecified),–,"inconclusive: 14.6 µM [activator, partial curve, poor fit]"
COc1cc(O)c(CCC(=O)c2cc(OC)c(OC)c(OC)c2)c(OC)c1,inconclusive: 16.8%,–
Cc1ccc(C(=O)NCC(=O)NCC(=O)OCC(=O)c2ccc([N+](=O)[O-])cc2)cc1,inconclusive: 34.4%,–
CC(C)(C)n1cnc2cc(NS(=O)(=O)c3ccccc3)ccc21,inconclusive: -9.83%,–
CCCCCC(=O)NC(=S)Nc1cccc(-c2nc3ncccc3o2)c1,–,"inconclusive: 0.731 µM [activator, full curve]"
CN(Cc1ccccc1)c1nc2c(c(=O)[nH]c(=O)n2C)n1Cc1ccccc1,–,"inconclusive: 2.59 µM [activator, full curve]"
COc1ccccc1NC(=O)N(Cc1cc2cc(OC)c(OC)cc2[nH]c1=O)CC1CCCO1 (stereo unspecified),–,"inconclusive: 8.2 µM [activator, partial curve]"
COc1cccc(NC(=O)CN(C)C(=O)CNC(=O)c2ccc(Oc3ccccc3)cc2)c1,inconclusive,–
CC(C)C(OC(=O)c1cccs1)C(=O)NCCc1ccccc1 (stereo unspecified),inconclusive: 155%,–

# Compounds from the list above that have a Cl atom (two):
SMILES,"lipid storage change, negative = inhibition",Potency
CN1CCN(NC(=O)c2ccc(Cl)s2)CC1,–,"inconclusive: 0.651 µM [activator, single point]"
O=C(Cc1ccccc1)NCC(=O)OCC(=O)c1ccc(Cl)c([N+](=O)[O-])c1,inconclusive: -34.5%,–

# The listing continues.

SMILES,"lipid storage change, negative = inhibition",Potency
O=C(COc1ccc2c(c1)C(=O)CC1(CCCCC1)O2)NCc1ccccc1,inconclusive: 33.8%,–
c1ccc(CC2CNc3ccccc3CN2)cc1 (stereo unspecified),inconclusive: -4.42%,–
C=CCN(C(=O)CCC(=O)Nc1cc(C)on1)C(C(=O)NC1CCCC1)c1ccc(OC)c(OC)c1 (stereo unspecified),–,"inconclusive: 29.1 µM [falling, single point]"
CC1CCCC(C)N1/N=C/c1cc(Br)cc(Br)c1O (stereo unspecified),inconclusive: 15.3%,–
CCOC(=O)CCC(=O)O[C@H]1[C@H](O[C@@H]2[C@@H](C)[C@H](O[C@H]3C[C@@](C)(OC)[C@@H](O)[C@H](C)O3)[C@@H](C)C(=O)O[C@H](CC)[C@@](C)(O)[C@H](O)[C@@H](C)C(=O)[C@H](C)C[C@@]2(C)O)O[C@H](C)C[C@@H]1N(C)C,inconclusive: -11.3%,–
Clc1ccc(SCCCCN2CCNCC2)cc1,inconclusive: -81.2%,–
O=C(COC(=O)c1ccc(Cl)cc1[N+](=O)[O-])NC(=O)c1ccccc1,inactive,–
O=C(/C=C/c1ccccc1)Nc1ccc2c(c1)C(=O)NC2=O,inconclusive: 26.2% [at 9.22 µM],–
CCCC(C)C(=O)Nc1ccc(Cl)cc1Cl (stereo unspecified),inconclusive: 4.08%,–
O=C(COc1cc(Cl)ccc1Cl)Nc1ccc2[nH]c(=O)[nH]c2c1,inconclusive,–
CC(=O)c1cnc(-c2cccc(Cl)c2)s1,–,"inconclusive: 1.16 µM [falling, single point]"
CN(Cc1ccco1)S(=O)(=O)c1cc(F)ccc1CN1C(=O)c2cccnc2C1=O,inconclusive: 25.3%,–
Cn1ncc2c(Nc3ccc(Cl)c(Cl)c3)ncnc21,inconclusive: 64.5%,–
CCOC(=O)c1cccc(OCC(O)CNCCOc2ccccc2F)c1 (stereo unspecified),inconclusive: 102%,–
CCSc1nc2ccccc2c(=O)n1CCc1ccc(OC)c(OC)c1,inconclusive: 16.6%,–
CCCCn1c(N)c(N(CC)C(=O)c2ccccc2F)c(=O)[nH]c1=O,–,active: 8.2 µM
O=S(=O)(NCC1CCCO1)c1ccc(Oc2ccccc2)cc1 (stereo unspecified),–,"inconclusive: 32.6 µM [falling, single point]"
O=C1c2ccccc2C(=O)N1CCN1CCOCC1,inconclusive: -23.1%,–
COc1ccccc1CNC(=O)COC(=O)C1CC1,–,"inconclusive: 0.651 µM [activator, full curve]"
CCOC(=O)c1c(C)n(C)c2ccc(OC(C)C(=O)OC)cc12 (stereo unspecified),inconclusive: 41.5%,–
Cc1cccc2nc(CSc3nc4ccccc4[nH]3)cn12,inactive,–
Nc1cc(N)nc(SCC(=O)NNC(=O)c2ccc(Cl)cc2)n1,inconclusive: -6.82%,–
Cc1cc(F)ccc1NC(=O)C1CCN(S(=O)(=O)c2ccc3c(c2)CCCC(=O)N3)CC1,–,"inconclusive: 10.3 µM [activator, single point]"
CCOc1ccccc1N1CCN(C(=O)[C@@H]2CCCN2C2=NS(=O)(=O)c3ccccc32)CC1,–,"inconclusive: 0.517 µM [falling, full curve]"
COc1cc(/C=C(\C#N)C(=O)NCC2CCCO2)ccc1OC(C)C (stereo unspecified),inconclusive: -41.9%,–
CC(C)(C)NC(=O)CN(Cc1ccc(F)cc1)C(=O)Cn1nnc(-c2ccc(F)cc2)n1,inconclusive: -35.5%,–

# Random excerpt: 2 compounds from above
SMILES,"lipid storage change, negative = inhibition",Potency
COc1cc(O)c(CCC(=O)c2cc(OC)c(OC)c(OC)c2)c(OC)c1,inconclusive: 16.8%,–
CCCCCC(=O)NC(=S)Nc1cccc(-c2nc3ncccc3o2)c1,–,"inconclusive: 0.731 µM [activator, full curve]"

# (listing goes on)

SMILES,"lipid storage change, negative = inhibition",Potency
CS(=O)(=O)c1ccc2nnn(OCC(=O)Nc3ccc(Br)cc3Br)c2c1,inconclusive: 28%,–
COc1ccccc1C(=O)Nc1nc2cc3c(cc2s1)OCO3,inconclusive: 30.2%,–
CC1CCCN(C(=O)CSc2nc3ccccc3o2)C1 (stereo unspecified),inconclusive: 68.5%,–
Cc1ccsc1C(=O)N(C)C1CCS(=O)(=O)C1 (stereo unspecified),inconclusive: 13.1%,–
COc1ccc2c(c1OC)c(=O)n1c3ccc(OC(C)C(=O)NCCCN4CCOCC4)cc3c3ccnc2c31 (stereo unspecified),–,"inconclusive: 4.11 µM [falling, partial curve]"
O=C(CCC1COc2ccccc2O1)NCc1ccco1 (stereo unspecified),inconclusive: -9.07%,–
CCN1C(=O)[C@H]2[C@@H](c3ccc(SC4CCCCC4)cc3)N[C@@](CC(C)C)(C(=O)OC)[C@H]2C1=O,–,active: 8.2 µM
CC(C)CN(C(=O)CSc1ccc2c(c1)OCCO2)c1c(N)n(CC(C)C)c(=O)[nH]c1=O,inconclusive: 10.8%,–
COc1ccc(C(C)=O)cc1CSc1nc(C)cc(C)n1,inconclusive: 44.5%,–
CCOC(=O)Nc1nc(C)c(C(=O)c2ccc(Cl)cc2)s1,inconclusive: 158%,–
CCCCOc1ccc(N=Cc2cccs2)cc1,–,"inconclusive: 29.1 µM [rising, single point]"
O=C(CC1CCCCC1)NCc1ccc(Cl)cc1,–,"inconclusive: 23.1 µM [falling, single point]"
CC1=NN(C(C#N)c2ccccc2C)C(c2ccccc2)C1 (stereo unspecified),inconclusive: -79.2%,–
COc1cc2ccccc2cc1C(=O)N1CCN(C(C)=O)CC1,–,"inconclusive: 29.1 µM [falling, single point]"
COC(=O)c1ccc(NC(=O)COC(=O)c2nc3nccc(C)n3n2)cc1,inconclusive: -18%,–
COc1ccc2[nH]cc(/C=N/NS(=O)(=O)c3ccc(C)cc3)c2c1,–,"inconclusive: 29.1 µM [cytotoxic, single point]"
COc1cc(=O)[nH]c(SCc2c(F)c(F)c(F)c(F)c2F)n1,inconclusive: -5.73%,–
Cc1cccc(COCC(Cc2ccccc2)N2CCN(C(=O)c3cc(Cl)cc(Cl)c3)CCC2=O)c1 (stereo unspecified),inconclusive: -1.95%,–
CCOc1ccc(-c2nc(C#N)c(NC3CC3)o2)cc1,–,"inconclusive: 0.259 µM [rising, full curve]"
Clc1ccc(Cn2ccc(-c3ccc4c(c3)OCO4)n2)cc1Cl,inconclusive: 15.7%,–
COC(=O)c1ccc(Cc2ccc(C(=O)OC)o2)o1,inactive,–
COCC1CCCCN1Cc1cn[nH]c1-c1ccc(OC)cc1OC (stereo unspecified),inconclusive: 21.7%,–
CCCCNc1c(-c2ccc(OC)c(Sc3ccc(OC)cc3)c2)nc2ccccn12,–,"inconclusive: 29.1 µM [cytotoxic, single point]"
CCN1C(=O)[C@H]2[C@@H](c3ccc(OC)cc3)N3C(=O)CN(Cc4ccccc4)C(=O)[C@@]3(C)[C@H]2C1=O,–,"inconclusive: 29.1 µM [activator, partial curve, poor fit]"

# Reference: PubChem BioAssay AID2685 (National Center for Advancing Translational Sciences (NCATS), 2010)
